# PubChem BioAssay AID1508597 | Cure First, 2020
# Screen: 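Genes whose silencing sensitises or protects ovarian cancer cells against rucaparib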 (primary screen)
# Cell system: human ovarian carcinoma lines grown from tumours: OCI-P5x (papillary serous) and OCI-C5x (clear cell)
# Knock-down reagent: siRNA pool against human genes, 1.25 pmol siRNA per well
# Time to read-out: 72 h or 96 h, depending on the cell culture
# Challenge: rucaparib 20 µM (about IC30) or vehicle, present until read-out
# Rucaparib or vehicle: Rucaparib
# Cell line: OCI-P5x (serous)
# Read-out: 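ATP luminescence measured at 72 or 96 h according to the culture, then normalised and expressed as percent viability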
# Scale: viability, normalised: higher = more viable cells remaining
# Active means: 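a well counts as a hit if its normalised viability is under 80 percent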
# Meaning of the calls: active = viability under 80%; inactive = viability 80% or more
# Shown is an unselected part of the about 2,100 reagents, under one of the conditions tested. 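Calls flag viability under 80% in either arm, not effects specific to rucaparib; the reference for percent is not stated.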 Entries without a mark were called inactive. Some reagents were tested in more than one well and are listed for each. No sequences are given here. The record does not give: the 100% reference.
Gene,technical replicate,"viability, normalised (%)"
NPR1,1,103
NPR1,2,91.8
NPR1,3,88.3
CDK13,1,99.8
CDK13,2,94.9
CDK13,3,94.8
ENPP3,1,86.2
ENPP3,2,55.8 (active)
ENPP3,3,79 (active)
CDC42BPB,1,86.7
CDC42BPB,2,88.7
CDC42BPB,3,55.4 (active)
TDRD9,1,76 (active)
TDRD9,2,71.8 (active)
TDRD9,3,71.2 (active)
GK,1,102
GK,2,83.7
GK,3,80.8
APBB1,1,63.8 (active)
APBB1,2,48.4 (active)
APBB1,3,56.2 (active)

Quoted from above (3 entries):
Gene,technical replicate,"viability, normalised (%)"
NPR1,3,88.3
CDK13,1,99.8
CDK13,2,94.9

More results follow.
Gene,technical replicate,"viability, normalised (%)"
SLC22A12,1,46.2 (active)
SLC22A12,2,59.1 (active)
SLC22A12,3,53 (active)
TNP1,1,57.5 (active)
TNP1,2,58.6 (active)
TNP1,3,49.4 (active)
POLH,1,82
POLH,1,77.3 (active)
POLH,2,80.9
POLH,2,63.7 (active)
POLH,3,73 (active)
POLH,3,79.2 (active)
PKD2L2,1,78.5 (active)
PKD2L2,2,89.8
PKD2L2,3,77.4 (active)
MPP4,1,83.8
MPP4,2,75.4 (active)
MPP4,3,63.3 (active)
RNF8,1,29.4 (active)
RNF8,1,67.9 (active)
RNF8,2,62.1 (active)
RNF8,2,28.2 (active)
RNF8,3,26.8 (active)
RNF8,3,60.8 (active)
EXT1,1,89.3
EXT1,2,81.8
EXT1,3,84.1
DHX34,1,64.2 (active)
DHX34,2,56.5 (active)
DHX34,3,60.7 (active)
PARP6,1,29 (active)
PARP6,2,32.6 (active)
PARP6,3,34.2 (active)
ITK,1,69.4 (active)
ITK,2,85.2
ITK,3,72.2 (active)
